From PubChem BioAssay AID248 (DTP/NCI, 2004) come the findings set out here.

The list is a part of this screen's results and no random one: it is rich in T/C values a quarter to a half above the control, in often repeated tests (any T/C) and in doses without a T/C. Further doses and runs are listed elsewhere. T/C: endpoint of the treated group in % of that of the vehicle group. Some doses have a count of surviving animals in place of a T/C: the source files T/C as zero there, which appears to mark a toxic dose or a test without result, not a measured value. Some doses without a T/C left all or most animals alive at the check, yet need not have been tolerated: the source hardly ever lists a survival T/C far under the control, and the zero likely stands for such cases as well. Counts of survivors are from the toxicity check (mostly the fifth day) where no day follows; animals may have died later. Schedule codes are those of the source, taken here to give the interval after Q, in days (D) or hours (H), and the number of doses after X. Some schedule codes hold Z or #, which are not explained here. Some entries were tested several times; the results are listed from low to high. For survival time, this PubChem deposit counts one and a half times the control or more as active, and values a quarter to a half above the control carry no call in these data; other NCI protocols may use other cut-offs. Some T/C values carry the count of animals alive at the toxicity check (mostly the fifth day); where none is given, no animal had died by that day.

The subject of the assay is L1210 leukemia ip in BDF1 mice, survival T/C. The assay is described as follows: NCI In Vivo Anticancer Drug Screen. Data for tumor model L1210 Leukemia (intraperitoneal) in B6D2F1 (BDF1) mice. The conditions noted are these: T/C endpoint: mean survival time, higher T/C = longer survival.
The mark [1] stands for this setting: dose: 400.0 mg/kg/injection, schedule: Q04DX003 (ip), vehicle: Klucel (hydroxypropylcellulose) (HPC).
Where [2] appears, read: dose: 400.0 mg/kg/injection, schedule: Q04DX003 (ip), vehicle: saline with Tween-80.
Setting [3] is: dose: 300.0 mg/kg/injection, schedule: Q01DX001 (ip), vehicle: saline.
Where [4] appears, read: dose: 80.0 mg/kg/injection, schedule: Q01DX001 (ip), vehicle: saline.
[5] abbreviates: dose: 200.0 mg/kg/injection, schedule: Q01DX001 (ip), vehicle: saline.
The mark [6] stands for this setting: dose: 400.0 mg/kg/injection, schedule: Q01DX001 (ip), vehicle: saline.
[7] abbreviates: dose: 200.0 mg/kg/injection, schedule: Q04DX003 (ip), vehicle: Klucel (hydroxypropylcellulose) (HPC).
[8] abbreviates: dose: 200.0 mg/kg/injection, schedule: Q04DX002 (ip), vehicle: saline with Tween-80.
The mark [9] stands for this setting: dose: 400.0 mg/kg/injection, schedule: Q04DX002 (ip), vehicle: saline with Tween-80.
[10] abbreviates: dose: 50.0 mg/kg/injection, schedule: Q01DX001 (ip), vehicle: saline.
Where [11] appears, read: dose: 100.0 mg/kg/injection, schedule: Q01DX001 (ip), vehicle: saline.
Setting [12] is: dose: 400.0 mg/kg/injection, schedule: Q01DX009 (ip), vehicle: saline with Tween-80.
[13] abbreviates: dose: 40.0 mg/kg/injection, schedule: Q01DX001 (ip), vehicle: saline.

With `CCCCOCc1cc(CN2CCN(C)CC2)c(O)c2ncccc12`, the survivor count is 2 of 3 (dose: 200.0 mg/kg/injection, schedule: Q04DX002 (ip), vehicle: saline) and 0 of 3 (dose: 400.0 mg/kg/injection, schedule: Q04DX002 (ip), vehicle: saline).
Regarding `CCOC(=O)c1csc(/C=C/c2ccc([N+](=O)[O-])o2)n1`, under setting [1], the survivor count is listed as 0 of 6.
`CC[N+](C)(CC)/N=C(\C)c1ccccc1`: the survivor count (dose: 200.0 mg/kg/injection, schedule: Q04DX003 (ip), vehicle: saline with Tween-80) is recorded as 0 of 1 and the survivor count under setting [2] was 0 of 6.
As for `Nc1nc(=S)[nH]c(C(=O)O)c1Oc1ccccc1`, where the note is “dose: 50.0 mg/kg/injection, schedule: Q01DX001 (ip), vehicle: Klucel (hydroxypropylcellulose) (HPC)”, the survivor count is 6 of 6.
For `Nc1c(O)c(Cl)cc(Cl)c1Cl`, the survivor count (dose: 400.0 mg/kg/injection, schedule: Q04DX002 (ip), vehicle: other) is 0 of 3.
For the compound `COc1cccc(/C=N/N=C(N)N)c1OC`, the survivor count is, setting by setting: (dose: 125.0 mg/kg/injection, schedule: Q01DX Z (ip), vehicle: saline) 5 of 6; (dose: 250.0 mg/kg/injection, schedule: Q01DX Z (ip), vehicle: saline) 0 of 6; (dose: 500.0 mg/kg/injection, schedule: Q01DX Z (ip), vehicle: saline) 0 of 6.
As for `COc1cc(-c2c3c(cc4c2OCO4)CC(O)C(C(=O)O)C3)cc(OC)c1OC` (stereo not drawn), under setting [3], the T/C is 125 % of control [4 of 6 alive]. Moreover, the survivor count reads like this: under setting [3], 2 of 6; (dose: 450.0 mg/kg/injection, schedule: Q01DX001 (ip), vehicle: Klucel (hydroxypropylcellulose) (HPC)) 3 of 6; (dose: 450.0 mg/kg/injection, schedule: Q01DX001 (ip), vehicle: saline) 1 of 6.
As to `[Cl][Hg][CH2]C1COC([CH2][Hg][Cl])CO1` (stereo not drawn), the survivor count is given as 2 of 6 (dose: 100.0 mg/kg/injection, schedule: Q01DX001 (ip), vehicle: carboxymethylcellulose (CMC)); 1 of 6 (dose: 200.0 mg/kg/injection, schedule: Q01DX001 (ip), vehicle: carboxymethylcellulose (CMC)); 0 of 6 (dose: 400.0 mg/kg/injection, schedule: Q01DX001 (ip), vehicle: carboxymethylcellulose (CMC)).
Regarding `c1ccc(CCCn2cnc3cnccc32)cc1`, the survivor count reads like this: under setting [4], 0 of 4; under setting [5], 0 of 4; under setting [6], 0 of 4.
For `N#CC(C#N)=NNc1ccccc1`, the survivor count is 0 of 6 (dose: 50.0 mg/kg/injection, schedule: Q04DX003 (ip), vehicle: Klucel (hydroxypropylcellulose) (HPC)); 0 of 6 (dose: 100.0 mg/kg/injection, schedule: Q04DX003 (ip), vehicle: Klucel (hydroxypropylcellulose) (HPC)); 0 of 6 under setting [7].
`O=[N+]([O-])c1cccc2cn[nH]c12`: the survivor count is on record as 1 of 3 under setting [8] and 0 of 3 under setting [9].
Take `C#CC[P+](c1ccccc1)(c1ccccc1)c1ccccc1`: the survivor count is, setting by setting: under setting [10], 3 of 6; under setting [11], 0 of 6; under setting [5], 0 of 6; under setting [6], 0 of 6.
`c1ccc2c3nc4ccccc4c-3scc2c1`: the survivor count (dose: 400.0 mg/kg/injection, schedule: Q01DX001 (ip), vehicle: acetone) is recorded as 0 of 6.
As for `O=C1OC(c2cccc(Cl)c2)=N/C1=C\c1ccccc1`, the survivor count (dose: 200.0 mg/kg/injection, schedule: Q04DX002 (ip), vehicle: Klucel (hydroxypropylcellulose) (HPC)) is 3 of 3.
As to `Oc1ccc2ccccc2c1Cc1cccc2ccccc12`, the survivor count under setting [12] was 2 of 6.
As to `OC1COC(OCc2ccccc2)C(O)C1O` (stereo not drawn), the survivor count under setting [2] is 6 of 6.
On to `CCCCOC(=O)COc1cc(Cl)c(Cl)cc1Cl`, for which, under setting [9], the survivor count is 1 of 3.
Consider `CCOc1cc(OCC)c(C=O)c(OCC)c1`, for which the survivor count under setting [11] was 6 of 6.
For the compound `NCC1C2CCC(C2)C1CCCNCCCC1C2CCC(C2)C1CN` (stereo not drawn), the survivor count by setting is: (dose: 100.0 mg/kg/injection, schedule: Q04DX002 (ip), vehicle: saline with Tween-80) 0 of 3; under setting [8], 0 of 3; under setting [9], 0 of 3.
Take `CCCCCCCCCCCCCCCC[N+]1(CCCC)CCOCC1`: the survivor count under setting [1] is listed as 2 of 3.
For the compound `CCOC(=O)c1cnn(C(N)=O)c1N`, under setting [12], the survivor count is on record as 2 of 6.
Regarding `O=C1C=C(N2CCOCC2)c2cccc3cccc1c23`, the survivor count (dose: 400.0 mg/kg/injection, schedule: Q01DX009 (ip), vehicle: Klucel (hydroxypropylcellulose) (HPC)) was 1 of 5.
Consider `CN1CCC=Cc2ccccc21`, for which the survivor count (dose: 200.0 mg/kg/injection, schedule: Q01DX009 (ip), vehicle: saline) is listed as 5 of 6 and the survivor count (dose: 400.0 mg/kg/injection, schedule: Q01DX009 (ip), vehicle: saline) was 0 of 6.
For `O=C(/C=C(\CN1CCCCC1)c1ccccc1)c1ccccc1`, under setting [7], the survivor count is given as 5 of 6.
In the case of `CCCCNc1ncnc2c1cnn2C`, the survivor count runs as follows: (dose: 150.0 mg/kg/injection, schedule: Q01DX Z (ip), vehicle: saline) 5 of 6; (dose: 250.0 mg/kg/injection, schedule: Q01DX010 (ip), vehicle: saline) 0 of 6 and 1 of 6; under setting [6], 0 of 6; (dose: 800.0 mg/kg/injection, schedule: Q01DX001 (ip), vehicle: saline) 0 of 6.
With `CC(=N/N=C(N)N)/C(C)=N/N=C(N)N`, for the setting “dose: 480.0 mg/kg/injection, schedule: Q01DX005 (oral), vehicle: saline”, the survivor count was 4 of 6.
As to `CC1CCC2N(C1)CC1C3(O)CC4(O)C(CCC5C(=O)C(O)CCC54C)C3(O)CC(O)C1(O)C2(C)O` (stereo not drawn), the survivor count under setting [13] is 3 of 6 and the survivor count under setting [4] is reported as 0 of 6.
Turning to `CCOC(=O)c1cc(N(CCOS(C)(=O)=O)CCOS(C)(=O)=O)ccc1N`, the T/C reads like this: (dose: 10.0 mg/kg/injection, schedule: Q01DX001 (ip), vehicle: saline) 131 % of control; (dose: 20.0 mg/kg/injection, schedule: Q01DX001 (ip), vehicle: saline) 127 % of control. The survivor count is on record as 1 of 6 (dose: 10.0 mg/kg/injection, schedule: Q01DX015 (ip), vehicle: saline); 3 of 6 (dose: 15.0 mg/kg/injection, schedule: Q01DX015 (ip), vehicle: saline); 1 of 4 under setting [13]; 0 of 4 under setting [10]; 0 of 4 under setting [4]; 0 of 4 under setting [11]. Moreover, the survivor count by setting is: under setting [5], 0 of 4; under setting [6], 0 of 4.
As for `COc1c(O)cc2c(c1OC)-c1ccc(OC)c(=O)cc1C(NC=O)CC2` (stereo not drawn), the survivor count under setting [2] is on record as 1 of 6.
For `CC(C)C1C(C)N1C(C)C` (stereo not drawn), the survivor count reads like this: under setting [7], 0 of 6; under setting [1], 0 of 6.
With `CCCCn1cnc2c(SSc3ncnc4c3ncn4CCCC)ncnc21`, the T/C is, setting by setting: (dose: 75.0 mg/kg/injection, schedule: Q01DX Z (ip), vehicle: saline) 131 % of control; (dose: 200.0 mg/kg/injection, schedule: Q04DX003 (ip), vehicle: gum acacia) 126 % of control [4 of 6 alive]; (dose: 300.0 mg/kg/injection, schedule: Q04DX003 (ip), vehicle: gum acacia) 139 % of control [5 of 6 alive]. In addition, the survivor count (dose: 300.0 mg/kg/injection, schedule: Q01DX Z (ip), vehicle: saline) is 0 of 6.
